# Data: the supplement of paper PMC8551327
# Counter-ions that a name gives are not always drawn. This is one part of the list. Cut-off read from the data, not from the text of the source: active = 1.25 or more and inactive = the rest. Many values rest on one well or one pass, so single values are uncertain.
# System: Kcc2-LUC knock-in mouse primary cortical neurons (Kcc2 promoter reporter)
# Assay: Kcc2 promoter-driven luciferase activity relative to vehicle control (fold of vehicle (ratio)); higher = stronger Kcc2 promoter activation (Kcc2 expression enhancer)
# Details: 100 nM; 48 h
row,SMILES,Kcc2 promoter-driven luciferase activity
1,"NC1=NCN([C@@H]2O[C@H](CO)[C@@H](O)[C@H]2O)C(=O)N1 [5,6-dihydro-5'-azacytidine]",inactive: 0.69
2,CCOC(=O)Cc1c(C)c2cc(C(=O)c3ccccc3)c(O)cc2oc1=O,inactive: 1.05
3,CC(C)c1ccc2c(c1)CC[C@H]1[C@](C)(C(=O)O)CCC[C@]21C [Dehydroabietic Acid],inactive: 1
4,O[C@@H]([C@H](O)[C@H](O)CBr)[C@H](O)CBr [Dibromomannitol],inactive: 1
5,NC1(CCNC(=O)c2ccccc2)CCN(C(=O)c2ccccc2)CC1,inactive: 0.902
6,Cc1ccc([S+](c2ccc(C)cc2)c2ccc(C)cc2)cc1 [Tris(4-methylphenyl)sulfonium Chloride],inactive: 1.11
7,CCCCCC/C=C\CCCCCCCCCc1cccc(OC)c1O [2-[(Z)-heptadec-10-enyl]-6-methoxyphenol],inactive: 0.69
8,Cc1c2oc3c(C)ccc(C(=O)N[C@@H]4C(=O)N[C@H](C(C)C)C(=O)N5CCC[C@H]5C(=O)N(C)CC(=O)N(C)[C@@H](C(C)C)C(=O)O[C@@H]4C)c3nc-2c(C(=O)N[C@@H]2C(=O)N[C@H](C(C)C)C(=O)N3CCC[C@H]3C(=O)N(C)CC(=O)N(C)[C@@H](C(C)C)C(=O)O[C@@H]2C)c(N)c1=O [Actinomycin D],inactive: 0.02
9,C=C1C(=O)OCC2C(C(=O)O)=CC3C(C)C(C)=CC123 (stereo not drawn),inactive: 1.01
10,Cc1ccccc1NC(=O)C=NO [2-(Hydroxyimino)-N-(2-methylphenyl)acetamide],inactive: 0.99
11,CC(C)=CCC1=C(O)c2ccccc2C(=O)C1=O [Lapachol],inactive: 1.15
12,CC(C)(C)OC(=O)NC(Cc1ccccc1)C(=O)OCN1C(=O)C2C3C=CC(C2C1=O)C1C2C(=O)N(COC(=O)C(Cc4ccccc4)NC(=O)OC(C)(C)C)C(=O)C2C31 (stereo not drawn),inactive: 1.04
13,CO[C@H]1/C=C/O[C@@]2(C)Oc3c(C)c(O)c4c(O)c(cc(O)c4c3C2=O)NC(=O)/C(C)=C\C=C\[C@H](C)[C@H](O)[C@@H](C)[C@@H](O)[C@@H](C)[C@H](OC(C)=O)[C@@H]1C [Rifamycin Sodium],inactive: 0.84
14,"CCOC(=O)CCc1c(C)c2c(O)cc(O)cc2oc1=O [Ethyl 3-(5,7-dihydroxy-4-methyl-2-oxochromen-3-yl)propanoate]",active: 1.72
15,"CCC1CN2CCc3cc(OC)c(OC)cc3C2CC1CC1c2cc(OC)c(OC)cc2CCN1C(=O)C1CCCN1C(=O)OCc1ccccc1 (stereo not drawn) [Emetine, benzyl ester]",inactive: 1.21
16,CS(=O)(=O)OCCCCOS(C)(=O)=O [Busulfan],inactive: 1.06
17,CC(=O)c1ccc(Oc2ccc(/C(C)=N/N=C(N)N)cc2)cc1,active: 1.32
18,O=C(/C=C/c1c(O)ccc2ccccc12)c1cccc(O)c1 [3-(2-Hydroxy-1-naphthyl)-1-(3-hydroxyphenyl)-2-propen-1-one],inactive: 1.1
19,COC1C(O)=C2C(=O)OC(C)(O)/C=C/C=C\C=C/C=C/C(c3ccccc3)NC(=O)/C=C/C=C/C=C/C=C/C2(C)C1O (stereo not drawn),inactive: 0.84

# Arranged by heavy-atom count (high to low): part of the list above.
row,SMILES,Kcc2 promoter-driven luciferase activity
2,CCOC(=O)Cc1c(C)c2cc(C(=O)c3ccccc3)c(O)cc2oc1=O,inactive: 1.05
1,"NC1=NCN([C@@H]2O[C@H](CO)[C@@H](O)[C@H]2O)C(=O)N1 [5,6-dihydro-5'-azacytidine]",inactive: 0.69
10,Cc1ccccc1NC(=O)C=NO [2-(Hydroxyimino)-N-(2-methylphenyl)acetamide],inactive: 0.99

# Additional results follow:

row,SMILES,Kcc2 promoter-driven luciferase activity
1,COc1cc(C)cc2c(-c3c(O)cc(O)c4c3C[C@@H](C)N[C@@H]4C)cc(-c3cc(-c4c(O)cc(O)c5c4C[C@@H](C)N[C@@H]5C)c4cc(C)cc(OC)c4c3O)c(O)c12 [Michellamine A],inactive: 1.2
2,CC(C)(C)c1ccc(OC2CCO2)cc1 (stereo not drawn) [2-(4-Tert-Butylphenoxy)oxetane],inactive: 1.1
3,CN(C)[C@@H]1C(=O)C(C(N)=O)=C(O)[C@@]2(O)C(=O)C3=C(O)c4c(O)cccc4C[C@H]3C[C@@H]12 [Sancycline hydrochloride; Bonomycin;],inactive: 0.49
4,Cc1ccc2c(sc(-c3ccc4c(c3)sc(-c3ccc(N(C)C)cc3)[n+]4C)[n+]2C)c1S(=O)(=O)O.Cc1ccc2c(sc(-c3ccc4c(c3)sc(-c3ccc5c(c3)sc(-c3ccc(N(C)C)cc3)[n+]5C)[n+]4C)[n+]2C)c1S(=O)(=O)O,inactive: 0.1
5,CCN(CC)CCNc1ccc2nc(C)n3c4ccc(OC)cc4c(=O)c1c23,inactive: 0.87
6,Cc1cccc(C)c1NC(=O)C(=O)C(c1ccccc1Cl)S(=O)(=O)Cc1ccccc1Cl (stereo not drawn),inactive: 1.11
7,CCN1C=C/C(=C\C=C\c2cc[n+](CC)c3ccccc23)c2ccccc21 [Cryptocyanine],inactive: 0.73
8,N[C@H](C(=O)O)[C@H]1ON=C(Cl)[C@H]1O [Hydroxy AT 125],inactive: 0.869
9,Nc1nc(Cl)nc2c1ncn2C1CC(O)C(CO)O1 (stereo not drawn) [5-(6-Amino-2-chloropurin-9-yl)-2-(hydroxymethyl)oxolan-3-ol],inactive: 0.82
10,COc1ccc(/C=C2\CCc3ccccc3C2=O)cc1OC [(2E)-2-Veratrylidenetetralin-1-one],inactive: 0.99
11,"Oc1cc(-n2cccn2)c(O)cc1-n1cccn1 [2,5-Di(pyrazol-1-yl)benzene-1,4-diol]",inactive: 0.2
12,C=C1C(=O)O[C@H]2[C@H]1CC/C(C)=C/CC[C@@]1(C)O[C@@H]21 [Parthenolide],inactive: 0.51
13,COc1ccc(-n2/c(=N/C(=S)N(C)C)ss/c2=N\C(=S)N(C)C)cc1,inactive: 0.89
14,"CCCc1c(Cl)nc(Cl)nc1Cl [2,4,6-Trichloro-5-propylpyrimidine]",inactive: 1.06
15,O=C(CC(=O)C(F)(F)F)c1csc2ccccc12 [3-Thianaphthenoyltrifluoroacetone],inactive: 0.36
16,"CC1(C)C(O)OC(O)C1(C)C (stereo not drawn) [3,3,4,4-tetramethyloxolane-2,5-diol]",active: 1.28
17,Cc1cccc(NC(=O)/C=C/c2ccc([N+](=O)[O-])cc2)c1 [n-(3-methylphenyl)-3-(4-nitrophenyl)prop-2-enamide],inactive: 0.22
18,Cc1c(Cl)cccc1NC(=O)c1cccc([N+](=O)[O-])c1O [N-(3-Chloro-2-methylphenyl)-2-hydroxy-3-nitrobenzamide],inactive: 0.84
19,Cc1ccc2ccc3ccc(C)nc3c2n1 [Neocuproine],inactive: 0.94
